{"source": "PubChem BioAssay AID540276", "about": "(National Center for Advancing Translational Sciences (NCATS), 2011)", "note": "In all, about 300,000 compounds went through this assay and about 5,400 (1.8%) were called active. The shares of active, inactive and inconclusive entries below differ from those in the screen. Calls come from the whole dose curve; tested in HEK293 cells. Potencies of inconclusive entries are doubtful fits and often do not repeat. % is set by controls: 0 for no effect and ±100 for the full control effect; potency is the fitted concentration of half-maximal effect.", "data": [{"experiment": "qHTS for inhibitors of binding or entry into cells for Marburg Virus", "conditions": "Marburg virus pseudotyped entry inhibition, cell reporter; activity change, negative = inhibition: at 37.8 µM (top of the series) unless noted", "values": [{"smiles": "CC(C)(C)NC(=O)CN(C(=O)C(=O)Nc1ccc2c(c1)OCCO2)C(C)(C)C", "Potency": "inconclusive: 14.1 µM [activator, single point]"}, {"smiles": "C=C(C)C1CC=C(C)/C(=N/Nc2ccccc2[N+](=O)[O-])C1", "note": "(stereo not drawn)", "Potency": "inconclusive: 0.0891 µM [inhibitor, full curve, poor fit]"}, {"smiles": "CC1=C/C(=N\\OS(=O)(=O)c2ccccc2)C(C(C)C)=CC1=O", "Potency": "inconclusive: 3.55 µM [inhibitor, partial curve, poor fit]"}, {"smiles": "COc1ccc(-c2cc3nc(C)c(CCC(=O)N4CCN(c5ccc(F)cc5)CC4)c(C)n3n2)c(OC)c1", "activity change, negative = inhibition": "inactive: 1.08% [at 46.1 µM]"}, {"smiles": "COC(=O)c1cc(Sc2c(Cl)cccc2Cl)ccn1", "Potency": "active: 11.2 µM"}, {"smiles": "CCCCC#Cc1nc(NC)c2ncn([C@@H]3O[C@H](CO)[C@@H](O)[C@H]3O)c2n1", "activity change, negative = inhibition": "inactive: 8.82%"}, {"smiles": "Cc1cccc(NC(=O)CN2C(=O)N/C(=C\\c3ccccc3OCc3ccc(C(=O)O)cc3)C2=O)c1", "activity change, negative = inhibition": "inactive: 15.5%"}, {"smiles": "O=C(N/N=C/c1sc(N2CCOCC2)nc1-c1ccccc1)c1cccc(S(=O)(=O)N2CCCC2)c1", "Potency": "inconclusive: 0.562 µM [inhibitor, full curve, poor fit]"}, {"smiles": "CCN1CCN(C(=S)Nc2cccc([N+](=O)[O-])c2)CC1", "activity change, negative = inhibition": "inactive: 5.34%"}, {"smiles": "N/C(=N\\OC(=O)c1ccc2c(c1)OCO2)c1cccc([N+](=O)[O-])c1", "Potency": "inconclusive: 35.5 µM [inhibitor, single point]"}, {"smiles": "Cc1c(C(=O)OCC(=O)c2ccc3c(c2)OCCO3)oc2ccccc12", "activity change, negative = inhibition": "inactive: 20.4% [at 46.1 µM]"}, {"smiles": "CS(=O)(=O)c1ccc2nc(NC(=O)C3CC(=O)N(c4ccccc4)C3)sc2c1", "note": "(stereo not drawn)", "activity change, negative = inhibition": "inactive: -8.68% [at 46.1 µM]"}, {"smiles": "CCOC(=O)COc1c(C=O)cc(Br)cc1OC", "Potency": "inconclusive: 0.411 µM [inhibitor, partial curve, poor fit]"}, {"smiles": "O=C(Nc1nc(-c2cccs2)cs1)C1=COCCO1", "Potency": "inconclusive: 5.62 µM [activator, partial curve, poor fit]"}, {"smiles": "CCn1c(SCC(=O)Nc2cc(C)on2)nnc1-c1ccc(S(=O)(=O)N2CCCC2)cc1", "Potency": "inconclusive: 32.6 µM [activator, single point]"}, {"smiles": "O=C(O)c1ccc(CSCc2ccccc2F)o1", "Potency": "inconclusive: 35.5 µM [activator, partial curve, poor fit]"}, {"smiles": "CCOc1ccc2oc(C(=O)OCC(=O)NC(=O)NC)c(C)c2c1", "Potency": "inconclusive: 35.5 µM [activator, single point]"}, {"smiles": "COc1ccc2ccccc2c1CNCc1ccccn1", "Potency": "inconclusive: 1.83 µM [activator, full curve]"}, {"smiles": "COC(=O)C1=C(C)N(CC#C[Si](C)(C)C)C(=O)N(C(C)=O)C1c1ccccc1", "note": "(stereo not drawn)", "activity change, negative = inhibition": "inactive: -5.37% [at 14.2 µM]"}, {"smiles": "O=C(NNC(=O)c1ccncc1)Nc1ccc(Cl)cc1", "Potency": "inconclusive: 12.6 µM [activator, partial curve, poor fit]"}, {"smiles": "C=CCNC(=S)N1CCN(c2ncc(C(F)(F)F)cc2Cl)CC1", "Potency": "inconclusive: 20 µM [inhibitor, single point]"}, {"smiles": "O=C(COC(=O)c1ccc(S(=O)(=O)NCc2ccco2)cc1)c1ccccc1", "Potency": "inconclusive: 0.708 µM [activator, full curve, poor fit]"}, {"smiles": "Cc1ccc(CNc2nc(-c3ccco3)nn2S(=O)(=O)c2ccc3ccccc3c2)cc1", "Potency": "inconclusive: 35.5 µM [activator, single point]"}, {"smiles": "O=C(CSc1ncc(-c2ccccc2)[nH]1)Nc1ccc(Cl)cc1", "Potency": "inconclusive: 6.31 µM [activator, single point]"}, {"smiles": "O=C(NNC(=O)c1ccccc1F)c1cccc(Cl)c1", "Potency": "inconclusive: 4.61 µM [activator, single point]"}, {"smiles": "O=C(Cc1ccccc1[N+](=O)[O-])NCc1ccc2c(c1)OCO2", "activity change, negative = inhibition": "inactive: 15.4%"}, {"smiles": "O=C(COc1ccc2ccc(=O)oc2c1)Nc1ccc2c(c1)OCCO2", "activity change, negative = inhibition": "inactive: -2.07%"}, {"smiles": "Cc1ccc(C)c(S(=O)(=O)N2CCCC2CNC(=O)C(=O)NCc2ccccc2C)c1", "note": "(stereo not drawn)", "Potency": "inconclusive: 11.2 µM [inhibitor, partial curve]"}, {"smiles": "COc1ccc(S(=O)(=O)NCC2CCCN(Cc3ccc(OC)cc3F)C2)cc1", "note": "(stereo not drawn)", "Potency": "inconclusive: 22.4 µM [inhibitor, single point]"}, {"smiles": "CCOc1cc(C(C(=O)NCC2CCCO2)N(C(=O)Cn2nnc3ccccc32)c2ccc(NC(C)=O)cc2)ccc1O", "note": "(stereo not drawn)", "activity change, negative = inhibition": "inactive: 5.81% [at 46.1 µM]"}, {"smiles": "CCOc1ccc(CCNC(=O)Cn2nnc(-c3ccccc3Cl)n2)cc1OCC", "activity change, negative = inhibition": "inactive: -13.9% [at 46.1 µM]"}, {"smiles": "Cc1ccc(C(=O)CN2/C(=C(\\O)c3ccccc3)C(=O)c3ccccc3S2(=O)=O)c(C)c1", "Potency": "inconclusive: 29.1 µM [inhibitor, single point]"}, {"smiles": "O=C1C2CCCN2C(c2ccccc2)N1c1ccc(Cl)cc1", "note": "(stereo not drawn)", "Potency": "inconclusive: 5.17 µM [inhibitor, full curve, poor fit]"}, {"smiles": "CSc1nc(-c2ccco2)nn1C(=O)c1ccc(C)cc1", "activity change, negative = inhibition": "inactive: -12.6%"}, {"smiles": "O=[N+]([O-])c1cccc(OCCCN2CCC(Cc3ccccc3)CC2)c1", "Potency": "inconclusive: 10 µM [inhibitor, partial curve, poor fit]"}, {"smiles": "O=C(CC1C(=O)N(c2ccccc2)C(=O)N1CCc1cccs1)Nc1ccc(F)cc1", "note": "(stereo not drawn)", "Potency": "inconclusive: 0.316 µM [inhibitor, full curve, poor fit]"}, {"smiles": "Cc1ccc(/C=C\\c2nccc3c2[nH]c2ccccc23)cc1", "Potency": "inconclusive: 6.31 µM [activator, single point]"}, {"smiles": "COc1ccc(S(=O)(=O)N(Cc2cccs2)C2CCCC2)cc1", "Potency": "inconclusive: 17.8 µM [inhibitor, partial curve, poor fit]"}, {"smiles": "CCOc1ccc(Nc2c(S(=O)(=O)c3ccc(Cl)cc3)cnc3ccc(OCC)cc23)cc1", "Potency": "inconclusive: 20 µM [inhibitor, partial curve, poor fit]"}, {"smiles": "Cc1cc(-c2ccc(NS(=O)(=O)c3ccccc3)c(C)c2)ccc1NS(=O)(=O)c1ccccc1", "Potency": "inconclusive: 5.62 µM [inhibitor, full curve]"}, {"smiles": "O=C(CSc1nnc(NC(=O)C2CC2)s1)Nc1ccccc1", "Potency": "inconclusive: 0.562 µM [activator, full curve, poor fit]"}, {"smiles": "Cn1c(=O)c2c(nc(NCCOc3ccc(C(C)(C)C)cc3)n2C)n(C)c1=O", "Potency": "inconclusive: 29.1 µM [activator, single point]"}, {"smiles": "Cc1ccsc1CN(C(=O)c1oc2ccc(Br)cc2c1C)C1CCS(=O)(=O)C1", "note": "(stereo not drawn)", "Potency": "inconclusive: 2.51 µM [activator, partial curve, poor fit]"}, {"smiles": "COc1nc(-c2ccccc2)nnc1-c1ccccc1", "Potency": "inconclusive: 10 µM [inhibitor, partial curve, poor fit]"}, {"smiles": "CCn1cc(C(=O)N2CCc3ccccc32)c(=O)c2cc(S(=O)(=O)N(C)C3CCCCC3)ccc21", "Potency": "inconclusive: 15.8 µM [inhibitor, partial curve, poor fit]"}, {"smiles": "Cc1cc(C)nc(SCc2nnc(SCc3ccccc3Cl)o2)n1", "Potency": "inconclusive: 23.1 µM [inhibitor, partial curve, poor fit]"}, {"smiles": "CCn1c(CC(C)C)n[nH]c1=S", "activity change, negative = inhibition": "inactive: 13%"}, {"smiles": "O=C(NC1CCCCC1)N1CCN(c2ccc(Cl)cc2)CC1", "activity change, negative = inhibition": "inactive: -18.5% [at 46.1 µM]"}, {"smiles": "CN(CC(=O)Nc1ccccc1Br)C(=O)CN1CCN(Cc2cccc(Cl)c2)CC1", "Potency": "inconclusive: 35.5 µM [inhibitor, partial curve, poor fit]"}, {"smiles": "Cn1c(=O)c2cn(-c3ccccc3)cc2n(C)c1=O", "activity change, negative = inhibition": "inactive: 17.5% [at 46.1 µM]"}, {"smiles": "COc1ccc(NC(=O)c2ccc3nccnc3c2)cc1", "activity change, negative = inhibition": "inactive: -18.8%"}, {"smiles": "CSc1sc(C(=O)N2CCCCC2)c(-c2cccs2)c1C#N", "activity change, negative = inhibition": "inactive: 18% [at 14.2 µM]"}, {"smiles": "Cc1ccc(C(NC(=O)C(C)C)c2cc([N+](=O)[O-])c3cccnc3c2O)cc1", "note": "(stereo not drawn)", "Potency": "inconclusive: 10 µM [inhibitor, partial curve, poor fit]"}, {"smiles": "O=C(CSc1ccc(-c2cccs2)nn1)N1CCCCC1", "Potency": "inconclusive: 0.112 µM [activator, full curve, poor fit]"}, {"smiles": "C=CCn1c(COc2ccccc2F)nnc1SCCN1C(=O)c2ccccc2C1=O", "Potency": "inconclusive: 5.62 µM [activator, single point]"}, {"smiles": "Cc1ccc(S(=O)(=O)N2CCC(=O)N(C(COCc3ccccc3)Cc3ccccc3)CC2)cc1", "note": "(stereo not drawn)", "activity change, negative = inhibition": "inactive: 27.6%"}, {"smiles": "O=C(COC(=O)Cc1c(F)cccc1Cl)NC(=O)Nc1ccccc1F", "Potency": "inconclusive: 35.5 µM [activator, single point]"}, {"smiles": "Cc1ccc2nc(Cl)c3cc(C(=O)N4CCCCC4C)sc3c2c1", "note": "(stereo not drawn)", "activity change, negative = inhibition": "inactive: 2.28% [at 46.1 µM]"}, {"smiles": "CCOc1cc(/C=N/OC(C)=O)ccc1OCc1ccccc1", "activity change, negative = inhibition": "inactive: -19.4% [at 14.2 µM]"}, {"smiles": "Cc1c(Cl)cccc1NC(=S)N(Cc1cccnc1)Cc1ccccc1Cl", "Potency": "inconclusive: 14.1 µM [inhibitor, single point]"}, {"smiles": "O=C(Nc1ccc(Cc2ccc(NC(=O)C3CC3)c(O)c2)cc1O)C1CC1", "activity change, negative = inhibition": "inactive: -14.1%"}, {"smiles": "O=c1cc(-c2ccccc2)nc(SCCOc2ccccc2Cl)[nH]1", "activity change, negative = inhibition": "inactive: -2.63%"}, {"smiles": "COc1ccc(C(CNC(=O)COc2ccc(F)cc2Br)N2CCCC2)cc1", "note": "(stereo not drawn)", "Potency": "active: 4.47 µM"}, {"smiles": "COc1ccc(CCNC(=O)C(=O)NCC2CCCN2S(=O)(=O)c2ccccc2)cc1", "note": "(stereo not drawn)", "Potency": "inconclusive: 22.4 µM [inhibitor, single point]"}, {"smiles": "C#CCOc1ccc(-c2nnc(Nc3ccc(NC(C)=O)cc3)c3ccccc23)cc1", "Potency": "inconclusive: 12.6 µM [inhibitor, single point]"}, {"smiles": "C=CCc1cc(/C=N\\NC(=O)CSc2nnc(CCCc3ccc(OC)c(C)c3)o2)cc(OC)c1O", "activity change, negative = inhibition": "inactive: -1.65%"}, {"smiles": "CC(=O)N/N=C/c1cc(C)n(-c2ccc(Br)cc2)c1C", "Potency": "inconclusive: 35.5 µM [inhibitor, partial curve, poor fit]"}, {"smiles": "Cc1oc2ccc(O)c(CN3CCCC3)c2c1C(=O)Nc1ccc(C(C)C)cc1", "Potency": "inconclusive: 10 µM [inhibitor, partial curve, poor fit]"}]}]}
